Test results from paper PMC6529429.
Results are given in words; binding and its absence hold for the method and conditions named.

Amino acid sequences for entries named in this document (tags omitted).
UniProt Q9BQ24: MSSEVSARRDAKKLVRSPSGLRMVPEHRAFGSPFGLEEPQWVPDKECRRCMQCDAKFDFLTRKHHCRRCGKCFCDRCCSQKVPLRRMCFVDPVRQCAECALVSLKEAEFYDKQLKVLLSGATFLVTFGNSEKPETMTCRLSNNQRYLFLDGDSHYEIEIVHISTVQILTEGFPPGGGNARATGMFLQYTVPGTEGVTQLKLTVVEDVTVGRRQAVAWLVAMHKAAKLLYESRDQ
UniProt Q9HAU4: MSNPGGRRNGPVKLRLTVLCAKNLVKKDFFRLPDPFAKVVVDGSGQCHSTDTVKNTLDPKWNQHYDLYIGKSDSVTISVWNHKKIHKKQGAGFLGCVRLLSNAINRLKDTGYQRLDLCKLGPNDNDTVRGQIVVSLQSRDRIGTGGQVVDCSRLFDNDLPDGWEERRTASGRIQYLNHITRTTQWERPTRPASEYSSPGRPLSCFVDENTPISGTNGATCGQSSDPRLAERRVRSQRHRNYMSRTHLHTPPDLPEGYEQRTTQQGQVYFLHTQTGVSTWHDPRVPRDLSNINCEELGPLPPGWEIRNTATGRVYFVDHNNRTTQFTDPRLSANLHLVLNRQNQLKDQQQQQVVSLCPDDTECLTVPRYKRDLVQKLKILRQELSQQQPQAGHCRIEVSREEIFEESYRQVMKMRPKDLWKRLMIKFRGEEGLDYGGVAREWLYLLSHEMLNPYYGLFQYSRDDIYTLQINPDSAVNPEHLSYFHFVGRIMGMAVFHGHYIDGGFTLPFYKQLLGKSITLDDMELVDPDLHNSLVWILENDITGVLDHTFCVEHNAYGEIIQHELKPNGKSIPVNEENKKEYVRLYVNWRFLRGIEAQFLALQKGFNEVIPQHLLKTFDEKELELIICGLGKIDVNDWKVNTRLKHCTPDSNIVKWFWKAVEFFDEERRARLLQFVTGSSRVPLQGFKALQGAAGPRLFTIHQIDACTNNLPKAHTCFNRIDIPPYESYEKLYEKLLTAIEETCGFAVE

Target: recombinant FLAG-tagged ZFYVE21 (UniProt Q9BQ24)
Assay: pull-down; ZFYVE21 (1 μg) held on anti-ZFYVE21 protein A/G beads, washed, incubated with SMURF2 (1 μg) 30 min at room temperature; 32 μL RIPA buffer; western blot; both purified

With “recombinant SMURF2 (from UniProt Q9HAU4 1-748)” the binding was “no binding (tested: 1 μg of each protein)”.
